# This is one part of the list.
# By UniProt entry, the sequences of proteins in these tests, tags left out.
# UniProt Q0JBA9, entry or part of it: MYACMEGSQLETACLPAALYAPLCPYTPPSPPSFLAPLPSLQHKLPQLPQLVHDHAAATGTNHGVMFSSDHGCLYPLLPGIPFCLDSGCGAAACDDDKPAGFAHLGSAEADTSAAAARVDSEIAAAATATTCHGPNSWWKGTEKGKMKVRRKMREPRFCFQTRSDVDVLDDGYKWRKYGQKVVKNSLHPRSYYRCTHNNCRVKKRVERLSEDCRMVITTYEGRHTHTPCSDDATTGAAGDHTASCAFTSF
# Target: OsWRKY34 (Oryza sativa, UniProt Q0JBA9 1-250)
# Assay: protein-binding microarray (RPBM); PBS, 2% BSA, 51.3 ng/ul salmon testes DNA, 50 uM zinc acetate, 200 nM TF, 25 C, 1 h; high values mean tight binding
# Conditions: protein: recombinant; tags: N-terminal polyhistidine and DsRed monomer fusion (pET32a); label: CyDye5-dUTP incorporated in the synthesized complementary strand; 3' TTTTT single-stranded linker to array surface; dsDNA, one strand shown
# Outline: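 Transcription factors were each fused at the N-terminus to a polyhistidine tag plus DsRed and expressed in E. coli BL21-CodonPlus before Ni–NTA purification. Binding to a double-stranded custom Agilent array was carried out with 200 nM protein at 25 °C for 1 h in PBS, 2% BSA, salmon testes DNA and 50 µM zinc acetate. The binding signal is per-feature fluorescence intensity, in arbitrary units, on an Axon 4000B scanner.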
row,Sequence,binding signal
1,CTGGTGCTTTCGTCCTACGTACCCTAGCTAGCGGTCCGATCGGAGTCACCTAGTGCAG,10400 fluorescence intensity (a.u.)
2,TGTTACTTCCAGACATGGTTTAACGCTGTAATTCCTATACCGGAGTCACCTAGTGCAG,8290 fluorescence intensity (a.u.)
3,TCCCCGCCTTCGTCTCGCCGTCCGTCGCCCTGTTCTGCGCCGGAGTCACCTAGTGCAG,8150 fluorescence intensity (a.u.)
4,TGCACTTTGGCATTTTGGGGTATGGAAGTTATATACTCTACGGAGTCACCTAGTGCAG,9720 fluorescence intensity (a.u.)
5,TCTGCATGATTCCTTGGTTTCTTTTTTTACACATTTACTTCGGAGTCACCTAGTGCAG,10500 fluorescence intensity (a.u.)
6,ATGTCTGGTTTGAATGCATTGGGAGTAAGATGTCCTGGTTCGGAGTCACCTAGTGCAG,8810 fluorescence intensity (a.u.)
7,ACACAAATACCAATATATTTAATACTCTTACATCCTTCTTCGGAGTCACCTAGTGCAG,8680 fluorescence intensity (a.u.)
8,GGTATTCTGCATTCTGCACTAACATGGTTGGCCGTCGTCACGGAGTCACCTAGTGCAG,11000 fluorescence intensity (a.u.)
9,AAGCTCTACCACGTGCATGCTGCTTCATCACTTCATCTCCCGGAGTCACCTAGTGCAG,8750 fluorescence intensity (a.u.)
10,CTTCGTTTCTAGAGTAACACGCGGCAACCGCGGAGTTGACCGGAGTCACCTAGTGCAG,8170 fluorescence intensity (a.u.)
11,TTTTTTTTTCATGTTTGTTTGTGTGTGTGTGTGTGCAGGACGGAGTCACCTAGTGCAG,8780 fluorescence intensity (a.u.)
12,TGGGTATAGGATATTATGGTTGTTGTTGAATCCTTCGGAACGGAGTCACCTAGTGCAG,9240 fluorescence intensity (a.u.)
13,GGCTGGGTGTTACAACTTTGTCCAAAACATCAATAATTATCGGAGTCACCTAGTGCAG,8610 fluorescence intensity (a.u.)
14,ACCATCTCACCTGTCTCATCCAATTCTCTTTTTCCTGTATCGGAGTCACCTAGTGCAG,12200 fluorescence intensity (a.u.)
15,GGATCCCATTAACACGTGTCACCGTGGCATGCCACGTCATCGGAGTCACCTAGTGCAG,8390 fluorescence intensity (a.u.)
16,CTCCCTTCTTTTATGGCCAATGTGCGGTTATTTTCGGTTCCGGAGTCACCTAGTGCAG,8390 fluorescence intensity (a.u.)
17,TCCACAAGTGTCCATGTCCGCCGTGTTATCTACTTCCTTCCGGAGTCACCTAGTGCAG,10900 fluorescence intensity (a.u.)
18,GTTTTCCGTCTCCGGCCGCCAGGTTTGCTGCCGCGGCCGTCGGAGTCACCTAGTGCAG,9470 fluorescence intensity (a.u.)
19,TTAACGCCCAATTACGGATAGTGTGGATCAAACTTGAGTTCGGAGTCACCTAGTGCAG,8230 fluorescence intensity (a.u.)
20,CACCTGTCCCGCTGTCCGCCGCGCCGCCCGGTTCACACGGCGGAGTCACCTAGTGCAG,8300 fluorescence intensity (a.u.)
21,TTGCTCACCAGAGCTACTACTACCGGTCTGTCACGCTCACCGGAGTCACCTAGTGCAG,9180 fluorescence intensity (a.u.)

row,Sequence,binding signal
1,GGTGGAGGTGGTGGTGAGATGGAGAGAGAGAAGGTGACGTCGGAGTCACCTAGTGCAG,12900 fluorescence intensity (a.u.)
2,GTTAGTGTGTGGTTTGTTGCGTGCAGTCAGGTGCACTCGGCGGAGTCACCTAGTGCAG,11000 fluorescence intensity (a.u.)
3,TCCGACATGCTGCCCTCGATCGAGCTCATCCATCGGCCCTCGGAGTCACCTAGTGCAG,9550 fluorescence intensity (a.u.)
4,GGCTTTTGGTTTCTTGGTGGTTGTGGATTTTTTTTTTTTGCGGAGTCACCTAGTGCAG,12300 fluorescence intensity (a.u.)
5,ACACTTCCATACACCGAGTCCACCAACGCCCCTCTCAGGCCGGAGTCACCTAGTGCAG,9410 fluorescence intensity (a.u.)
6,ACGGTCACCTCCCGTCCCCACGTTTTTCTTTACACCCACGCGGAGTCACCTAGTGCAG,11200 fluorescence intensity (a.u.)
7,ACGTAAAACACTTAATCTTCATTTTATCTTTATCTTCAGGCGGAGTCACCTAGTGCAG,8490 fluorescence intensity (a.u.)
8,TCTATTGGCCGTTTCACTTTATCGCCACTTTTTTCAAATTCGGAGTCACCTAGTGCAG,9980 fluorescence intensity (a.u.)
9,CTAGGAGGAGGATTAGTTCTTGCGCATCGCTTCTGAGCTCCGGAGTCACCTAGTGCAG,8200 fluorescence intensity (a.u.)
10,CCCACCAGCTAAATAAGACAACTCAACCCTACACGCGCGTCGGAGTCACCTAGTGCAG,9170 fluorescence intensity (a.u.)
11,CCGGGGTTGCTGGCACACGCGGTGCGGCGCCGCCGTTGACCGGAGTCACCTAGTGCAG,15700 fluorescence intensity (a.u.)
12,ACGAGACGTCCACCACCATGGATTTCACCTGTTTCTGCGACGGAGTCACCTAGTGCAG,8170 fluorescence intensity (a.u.)
13,CGGTTTGTGTGAGTTTAGGGGTACATATTTCTGGTTTTATCGGAGTCACCTAGTGCAG,9530 fluorescence intensity (a.u.)
14,TCTTGCAGTATTTGCATGACTTATACCTGCCTCTGGACTTCGGAGTCACCTAGTGCAG,8110 fluorescence intensity (a.u.)
15,GCCCGCGCTTCATCCGGTAACCACCGTCACCAACCGTGCGCGGAGTCACCTAGTGCAG,8110 fluorescence intensity (a.u.)
16,AGAGAATTATGGAGAGGGGAGGGGAGGGGCAGCAAAAGAGCGGAGTCACCTAGTGCAG,9750 fluorescence intensity (a.u.)
17,GCACAAATGGGAAGTCTTTGCTTGTACTTTCTTCCATCTACGGAGTCACCTAGTGCAG,10400 fluorescence intensity (a.u.)
18,ATCCCTGTATTACTCCATTATCCATTCGATTCCCACGAGGCGGAGTCACCTAGTGCAG,11500 fluorescence intensity (a.u.)
19,GAAAAGCACGCTATTACCAGTACCACCACTGTTCGTTTCGCGGAGTCACCTAGTGCAG,8260 fluorescence intensity (a.u.)
20,AAACACAGAATCATCATCAACCGCCACTGCTACTAATCCTCGGAGTCACCTAGTGCAG,8390 fluorescence intensity (a.u.)
21,AAACTTGCTCTTCCTACCTTGCAGTAATCTCAGCGCTGCTCGGAGTCACCTAGTGCAG,9510 fluorescence intensity (a.u.)

# Retrieved one by one from above (2):
row,Sequence,binding signal
11,CCGGGGTTGCTGGCACACGCGGTGCGGCGCCGCCGTTGACCGGAGTCACCTAGTGCAG,15700 fluorescence intensity (a.u.)
4,GGCTTTTGGTTTCTTGGTGGTTGTGGATTTTTTTTTTTTGCGGAGTCACCTAGTGCAG,12300 fluorescence intensity (a.u.)

# Reference: paper PMC7819943, “Rice protein-binding microarrays: a tool to detect cis-acting elements near promoter regions in rice”
